{"source": "PubChem BioAssay AID1259405 | NCATS, 2018", "test": "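Knock-downs that lift recombinant protein yield in hamster ovary cells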 (primary screen)", "cell system": "Chinese hamster CHO-K1 ovary cells with stable secreted eGFP expression", "reagents": "single siRNA against mouse genes, 0.8 pmol siRNA per well (2 µl of 400 nM stock)", "duration": "3 days", "measurement": "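Percent of the per-plate non-targeting control median for intracellular GFP per well by laser scanning cytometry and for cell viability by ATP luminescence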", "reading the numbers": "GFP, % of control: higher = more GFP per well, higher productivity; viability (ATP), % of control: higher = more viable cells (more ATP)", "active means": "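a knock-down is called active if GFP reaches 120% or more of non-targeting control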", "note": "This is one part, drawn at random, of about 50,000 deposited reagents. About 4,000 of all reagents (8%) count as active. 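Mouse siRNA library applied to hamster cells; one well for each siRNA.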 No sequences are given here."}
{"target":"Ptpn5","PubChem SID":"SID363575013","GFP, % of control":88.4,"viability (ATP), % of control":86.7,"activity call":"inactive"}
{"target":"Ptpn5","PubChem SID":"SID363580645","GFP, % of control":123,"viability (ATP), % of control":82.9,"activity call":"active"}
{"target":"Ptpn5","PubChem SID":"SID363582757","GFP, % of control":103,"viability (ATP), % of control":88,"activity call":"inactive"}
{"target":"Rbck1","PubChem SID":"SID363541765","GFP, % of control":98.8,"viability (ATP), % of control":89.8,"activity call":"inactive"}
{"target":"Rbck1","PubChem SID":"SID363553357","GFP, % of control":119,"viability (ATP), % of control":104,"activity call":"inactive"}
{"target":"Rbck1","PubChem SID":"SID363566681","GFP, % of control":71.9,"viability (ATP), % of control":69.6,"activity call":"inactive"}
{"target":"Mafg","PubChem SID":"SID363541098","GFP, % of control":55,"viability (ATP), % of control":64.4,"activity call":"inactive"}
{"target":"Mafg","PubChem SID":"SID363555725","GFP, % of control":71.7,"viability (ATP), % of control":80.9,"activity call":"inactive"}
{"target":"Mafg","PubChem SID":"SID363566014","GFP, % of control":54.1,"viability (ATP), % of control":67.5,"activity call":"inactive"}
{"target":"Or4n4","PubChem SID":"SID363554631","GFP, % of control":136,"viability (ATP), % of control":81.5,"activity call":"active"}
{"target":"Or4n4","PubChem SID":"SID363568078","GFP, % of control":81.7,"viability (ATP), % of control":98.7,"activity call":"inactive"}
{"target":"Or4n4","PubChem SID":"SID363586137","GFP, % of control":103,"viability (ATP), % of control":78.5,"activity call":"inactive"}
{"target":"Tyw1","PubChem SID":"SID363547667","GFP, % of control":57.8,"viability (ATP), % of control":39,"activity call":"inactive"}
{"target":"Tyw1","PubChem SID":"SID363558436","GFP, % of control":140,"viability (ATP), % of control":81.2,"activity call":"active"}
{"target":"Tyw1","PubChem SID":"SID363560194","GFP, % of control":86.3,"viability (ATP), % of control":77,"activity call":"inactive"}
{"target":"Dnase1l1","PubChem SID":"SID363545656","GFP, % of control":169,"viability (ATP), % of control":74.3,"activity call":"active"}
{"target":"Dnase1l1","PubChem SID":"SID363549169","GFP, % of control":67.1,"viability (ATP), % of control":79.1,"activity call":"inactive"}
{"target":"Dnase1l1","PubChem SID":"SID363562975","GFP, % of control":122,"viability (ATP), % of control":69.8,"activity call":"active"}
{"target":"Prpf18","PubChem SID":"SID363545911","GFP, % of control":93.4,"viability (ATP), % of control":60.9,"activity call":"inactive"}
{"target":"Prpf18","PubChem SID":"SID363549424","GFP, % of control":38.7,"viability (ATP), % of control":61.8,"activity call":"inactive"}
{"target":"Prpf18","PubChem SID":"SID363563230","GFP, % of control":74.6,"viability (ATP), % of control":71.9,"activity call":"inactive"}
{"target":"Orc5","PubChem SID":"SID363554538","GFP, % of control":67.3,"viability (ATP), % of control":70.5,"activity call":"inactive"}
{"target":"Orc5","PubChem SID":"SID363567985","GFP, % of control":71.5,"viability (ATP), % of control":75.5,"activity call":"inactive"}
{"target":"Orc5","PubChem SID":"SID363586044","GFP, % of control":68.3,"viability (ATP), % of control":85.2,"activity call":"inactive"}
{"target":"Itih1","PubChem SID":"SID363573018","GFP, % of control":67,"viability (ATP), % of control":69.4,"activity call":"inactive"}
{"target":"Itih1","PubChem SID":"SID363577594","GFP, % of control":91,"viability (ATP), % of control":81.5,"activity call":"inactive"}
{"target":"Itih1","PubChem SID":"SID363581114","GFP, % of control":57.6,"viability (ATP), % of control":66.6,"activity call":"inactive"}
{"target":"Col16a1","PubChem SID":"SID363582520","GFP, % of control":84.5,"viability (ATP), % of control":137,"activity call":"inactive"}
{"target":"Col16a1","PubChem SID":"SID363584280","GFP, % of control":77.4,"viability (ATP), % of control":87.2,"activity call":"inactive"}
{"target":"Tpcn2","PubChem SID":"SID363574758","GFP, % of control":108,"viability (ATP), % of control":61.7,"activity call":"inactive"}
{"target":"Tpcn2","PubChem SID":"SID363575814","GFP, % of control":75.5,"viability (ATP), % of control":52,"activity call":"inactive"}
{"target":"Tpcn2","PubChem SID":"SID363580390","GFP, % of control":113,"viability (ATP), % of control":126,"activity call":"inactive"}
{"target":"Rbp4","PubChem SID":"SID363569898","GFP, % of control":85.6,"viability (ATP), % of control":87.6,"activity call":"inactive"}
{"target":"Rbp4","PubChem SID":"SID363576938","GFP, % of control":88.8,"viability (ATP), % of control":108,"activity call":"inactive"}
{"target":"Rbp4","PubChem SID":"SID363578346","GFP, % of control":78.3,"viability (ATP), % of control":72.8,"activity call":"inactive"}
{"target":"Trim8","PubChem SID":"SID363572719","GFP, % of control":79,"viability (ATP), % of control":114,"activity call":"inactive"}
{"target":"Trim8","PubChem SID":"SID363577999","GFP, % of control":105,"viability (ATP), % of control":95.1,"activity call":"inactive"}
{"target":"Trim8","PubChem SID":"SID363582223","GFP, % of control":112,"viability (ATP), % of control":134,"activity call":"inactive"}
{"target":"Cdc5l","PubChem SID":"SID363573271","GFP, % of control":55,"viability (ATP), % of control":74,"activity call":"inactive"}
{"target":"Cdc5l","PubChem SID":"SID363588510","GFP, % of control":97.3,"viability (ATP), % of control":88.3,"activity call":"inactive"}

Reformatted: results already given.
Itih1 [SID363577594]
- GFP, % of control: 91
- viability (ATP), % of control: 81.5
- activity call: inactive

Itih1 [SID363581114]
- GFP, % of control: 57.6
- viability (ATP), % of control: 66.6
- activity call: inactive

Col16a1 [SID363582520]
- GFP, % of control: 84.5
- viability (ATP), % of control: 137
- activity call: inactive

Col16a1 [SID363584280]
- GFP, % of control: 77.4
- viability (ATP), % of control: 87.2
- activity call: inactive
